Where a chain is given by its changes, count along the chain named. These are yes or no findings as the source states them, for the method shown. Some entries that bind do so weakly or less than the wild type.
B1: RSV/B.002 (protein)
chain: QNITEEFYQSTCSAVSRGYLSALRTGWYTSVITIELSNIKETKCNGTDTKVKLIKQELDKYKNAVTELQLLMQNTPAVNNRARREAPQYMNYTINTTKNLNVSISKKRKRRFLGFLLGVGSAIASGIAVCKVLHLEGEVNKIKNALQLTNKAVVSLSNGVSVLTFRVLDLKNYINNQLLPMLNRQSCRISNIETVIEFQQKNSRLLEITREFSVNAGVTTPLSTYMLTNSELLSLINDMPITNDQKKLMSSNVQIVRQQSYSIMCIIKEEVLAYVVQLPIYGVIDTPCWKLHTSPLCTTNIKEGSNICLTRTDRGWYCDNAGSVSFFPQADTCKVQSNRVFCDTMNSLTLPSEVSLCNTDIFNSKYDCKIMTSKTDISSSVITSLGAIVSCYGKTKCTASNKNRGIIKTFSNGCDYVSNKGVDTVSVGNTLYYVNKLEGKNLYVKGEPIINYYDPLVFPSDEFDASISQVNEKINQSLAFIRRSDELLGSGGSGSGSGGSEKAAKAEEAARKMEELFKKHKIVAVLRANSVEEAIEKAVAVFAGGVHLIEITFTVPDADTVIKALSVLKEKGAIIGAGTVTSVEQARKAVESGAEFIVSPHLDEEISQFAKEKGVFYMPGVMTPTELVKAMKLGHTILKLFPGEVVGPQFVKAMKGPFPNVKFVPTGGVNLDNVAEWFKAGVLAVGVGSALVKGTPDEVREKAKAFVEKIRGATELEHHHHHH
B2: RSV/B.081 (protein)
chain: B1 chain with T375D, D461A, E462R, D464A, K473A
B3: RSV/B.093 (protein)
chain: B1 chain with T375D, D461A, E462R, F463W, D464A, K473A
B4: RSV/B.099 (protein)
chain: B1 chain with T42V, E462R, K473A
B5: RSV/B.100 (protein)
chain: B1 chain with T42V, T224P, E462R, K473A
B6: RSV/B.123 (protein)
chain: B1 chain with T42V, T375D, E462R, D464A, K473A
B7: RSV/B.147 (protein)
chain: QNITEEFYQSTCSAVSRGYLSALRTGWYTSVITIELSNIKETKCNGTDTKVKLIKQELDKYKNAVTELQLLMQNTPAVNNRARREAPQYMNYTINTTKNLNVSISKKRKRRFLGFLLGVGSAIASGIAVCKVLHLEGEVNKIKNALQLTNKAVVSLSNGVSVLTFRVLDLKNYINNQLLPMLNRQSCRISNIETVIEFQQKNSRLLEITREFSVNAGVTTPLSTYMLTNSELLSLINDMPITNDQKKLMSSNVQIVRQQSYSIMCIIKEEVLAYVVQLPIYGVIDTPCWKLHTSPLCTTNIKEGSNICLTRTDRGWYCDNAGSVSFFPQADTCKVQSNRVFCDTMNSLTLPSEVSLCNTDIFNSKYDCKIMTSKTDISSSVITSLGAIVSCYGKTKCTASNKNRGIIKTFSNGCDYVSNKGVDTVSVGNTLYYVNKLEGKNLYVKGEPIINYYDPLVFPSDRFDASISQVNEAINQSREIIRAINIVRKIASEKGSGGSGSGSGGSEKAAKAEEAARKMEELFKKHKIVAVLRANSVEEAIEKAVAVFAGGVHLIEITFTVPDADTVIKALSVLKEKGAIIGAGTVTSVEQARKAVESGAEFIVSPHLDEEISQFAKEKGVFYMPGVMTPTELVKAMKLGHTILKLFPGEVVGPQFVKAMKGPFPNVKFVPTGGVNLDNVAEWFKAGVLAVGVGSALVKGTPDEVREKAKAFVEKIRGATELEHHHHHH
B8: RSV/B.148 (protein)
chain: QNITEEFYQSTCSAVSRGYLSALRTGWYTSVITIELSNIKETKCNGTDTKVKLIKQELDKYKNAVTELQLLMQNTPAVNNRARREAPQYMNYTINTTKNLNVSISKKRKRRFLGFLLGVGSAIASGIAVCKVLHLEGEVNKIKNALQLTNKAVVSLSNGVSVLTFRVLDLKNYINNQLLPMLNRQSCRISNIETVIEFQQKNSRLLEITREFSVNAGVTTPLSPYMLTNSELLSLINDMPITNDQKKLMSSNVQIVRQQSYSIMCIIKEEVLAYVVQLPIYGVIDTPCWKLHTSPLCTTNIKEGSNICLTRTDRGWYCDNAGSVSFFPQADTCKVQSNRVFCDTMNSLTLPSEVSLCNTDIFNSKYDCKIMTSKTDISSSVITSLGAIVSCYGKTKCTASNKNRGIIKTFSNGCDYVSNKGVDTVSVGNTLYYVNKLEGKNLYVKGEPIINYYDPLVFPSDRFDASISQVNEAINQSREIIRAINIVRKIASEKGSGGSGSGSGGSEKAAKAEEAARKMEELFKKHKIVAVLRANSVEEAIEKAVAVFAGGVHLIEITFTVPDADTVIKALSVLKEKGAIIGAGTVTSVEQARKAVESGAEFIVSPHLDEEISQFAKEKGVFYMPGVMTPTELVKAMKLGHTILKLFPGEVVGPQFVKAMKGPFPNVKFVPTGGVNLDNVAEWFKAGVLAVGVGSALVKGTPDEVREKAKAFVEKIRGATELLEHHHHHH
B9: RSV/B.160 (protein)
chain: B7 chain with T224P, T375D, F463W, D464A
B10: RSV/B.171 (protein)
chain: B7 chain with T375D, D464A
B11: RSV/B.172 (protein)
chain: B7 chain with T224P, T375D, D464A
B12: RSV/B.178 (protein)
chain: B7 chain with T224P, T375D, D461A, D464A
B13: RSV/B.189 (protein)
chain: B7 chain with T375D, D461A, F463W, D464A
B14: RSV/B.195 (protein)
chain: B7 chain with R462E, A473K

The binders below were run against I53-50B.4PosT1 (assay: in vitro assembly with I53-50B, DLS).

Binder | binding
B1 | binds
B2 | binds
B3 | binds
B4 | binds
B5 | binds
B6 | binds
B7 | binds
B8 | binds
B9 | binds
B10 | binds
B11 | binds
B12 | binds
B13 | binds
B14 | binds
